The list shows a part of the results.
Columns and labels:
Assay in all cases: log2 fold change, soluble protein after heating vs DMSO (PISA); higher = thermal stabilisation; K562 lysate, 10 uM; active = over 0.2 and 3.5 SD of the protein, either way, in both replicates (recomputed)
lapatinib = compound: CS(=O)(=O)CCNCc1ccc(-c2ccc3ncnc(Nc4ccc(OCc5cccc(F)c5)c(Cl)c4)c3c2)o1 [lapatinib]
Summary of the method: (§1)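 Values give the log-two fold change in thermal stability against solvent controls, from duplicates. Crude K562 extract at 1 mg/mL protein, made by dounce homogenisation in PBS pH 7.4 with 1 mM MgCl2, was treated with 10 μM compound for 30 min. After 3 min heating across 48°C-58°C, aliquots were pooled, adjusted to 0.5% NP-40 at 4°C and centrifuged at 21,000xg for 90 min. The supernatant was measured by TMTpro 16plex LC-MS/MS with channel sums equalised.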

By UniProt entry, the sequences of proteins in these tests, tags left out. Where a name states a change or a piece, a line headed by the entry shows the natural chain unless it says otherwise.
UniProt Q9UQE7: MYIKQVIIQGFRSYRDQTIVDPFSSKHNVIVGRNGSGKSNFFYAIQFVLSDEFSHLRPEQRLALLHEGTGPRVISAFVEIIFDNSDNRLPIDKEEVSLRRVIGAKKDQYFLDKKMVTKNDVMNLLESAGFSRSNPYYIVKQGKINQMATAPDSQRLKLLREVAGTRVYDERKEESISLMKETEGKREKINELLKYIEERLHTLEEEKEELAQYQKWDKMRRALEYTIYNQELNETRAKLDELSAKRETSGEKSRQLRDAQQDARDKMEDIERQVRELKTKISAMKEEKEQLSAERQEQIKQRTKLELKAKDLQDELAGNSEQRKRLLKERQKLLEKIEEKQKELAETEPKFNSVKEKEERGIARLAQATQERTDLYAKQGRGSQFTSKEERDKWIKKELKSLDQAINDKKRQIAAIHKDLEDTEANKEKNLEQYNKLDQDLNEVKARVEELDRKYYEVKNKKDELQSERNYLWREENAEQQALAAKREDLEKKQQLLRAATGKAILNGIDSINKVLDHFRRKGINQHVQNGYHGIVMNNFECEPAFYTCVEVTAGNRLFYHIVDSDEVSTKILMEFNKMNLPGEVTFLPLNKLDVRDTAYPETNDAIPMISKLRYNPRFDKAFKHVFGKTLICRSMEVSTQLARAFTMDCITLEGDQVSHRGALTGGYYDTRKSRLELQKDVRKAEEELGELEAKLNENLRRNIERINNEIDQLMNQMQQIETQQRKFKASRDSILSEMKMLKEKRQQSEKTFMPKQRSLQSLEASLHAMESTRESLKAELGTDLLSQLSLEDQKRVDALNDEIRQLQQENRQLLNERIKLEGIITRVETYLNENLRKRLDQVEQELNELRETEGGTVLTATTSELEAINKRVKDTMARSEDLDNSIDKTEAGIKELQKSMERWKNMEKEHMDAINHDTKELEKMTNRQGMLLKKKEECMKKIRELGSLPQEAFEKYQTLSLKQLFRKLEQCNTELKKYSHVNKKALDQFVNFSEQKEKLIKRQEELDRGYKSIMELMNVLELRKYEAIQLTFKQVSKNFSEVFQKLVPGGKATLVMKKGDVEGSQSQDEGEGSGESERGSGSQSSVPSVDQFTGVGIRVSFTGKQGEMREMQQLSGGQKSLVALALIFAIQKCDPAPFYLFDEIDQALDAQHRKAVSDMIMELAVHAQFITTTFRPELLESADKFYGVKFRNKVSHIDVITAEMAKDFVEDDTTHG
UniProt Q15506: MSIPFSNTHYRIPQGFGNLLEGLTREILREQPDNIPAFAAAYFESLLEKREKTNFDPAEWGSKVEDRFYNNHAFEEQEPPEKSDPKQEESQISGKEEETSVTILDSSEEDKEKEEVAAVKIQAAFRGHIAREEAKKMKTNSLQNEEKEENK
UniProt P62304, whole entry, looked up: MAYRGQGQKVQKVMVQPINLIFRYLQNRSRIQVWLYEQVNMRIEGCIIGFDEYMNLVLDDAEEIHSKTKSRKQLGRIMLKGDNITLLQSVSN
UniProt Q96H20: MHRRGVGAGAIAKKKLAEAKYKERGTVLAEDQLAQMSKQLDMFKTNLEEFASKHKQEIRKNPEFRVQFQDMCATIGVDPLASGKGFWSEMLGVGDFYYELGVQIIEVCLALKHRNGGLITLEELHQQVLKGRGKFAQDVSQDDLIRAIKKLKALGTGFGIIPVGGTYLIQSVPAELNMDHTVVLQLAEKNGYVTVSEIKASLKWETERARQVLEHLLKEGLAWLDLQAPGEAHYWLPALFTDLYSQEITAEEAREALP
UniProt P09661: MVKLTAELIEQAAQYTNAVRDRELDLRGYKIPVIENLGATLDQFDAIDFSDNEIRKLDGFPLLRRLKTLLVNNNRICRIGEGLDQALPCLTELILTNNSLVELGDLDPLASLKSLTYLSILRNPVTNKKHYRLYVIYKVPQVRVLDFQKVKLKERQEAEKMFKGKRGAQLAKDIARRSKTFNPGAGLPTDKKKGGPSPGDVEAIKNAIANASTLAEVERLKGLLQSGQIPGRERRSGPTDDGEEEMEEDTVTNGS
UniProt A6NHR9: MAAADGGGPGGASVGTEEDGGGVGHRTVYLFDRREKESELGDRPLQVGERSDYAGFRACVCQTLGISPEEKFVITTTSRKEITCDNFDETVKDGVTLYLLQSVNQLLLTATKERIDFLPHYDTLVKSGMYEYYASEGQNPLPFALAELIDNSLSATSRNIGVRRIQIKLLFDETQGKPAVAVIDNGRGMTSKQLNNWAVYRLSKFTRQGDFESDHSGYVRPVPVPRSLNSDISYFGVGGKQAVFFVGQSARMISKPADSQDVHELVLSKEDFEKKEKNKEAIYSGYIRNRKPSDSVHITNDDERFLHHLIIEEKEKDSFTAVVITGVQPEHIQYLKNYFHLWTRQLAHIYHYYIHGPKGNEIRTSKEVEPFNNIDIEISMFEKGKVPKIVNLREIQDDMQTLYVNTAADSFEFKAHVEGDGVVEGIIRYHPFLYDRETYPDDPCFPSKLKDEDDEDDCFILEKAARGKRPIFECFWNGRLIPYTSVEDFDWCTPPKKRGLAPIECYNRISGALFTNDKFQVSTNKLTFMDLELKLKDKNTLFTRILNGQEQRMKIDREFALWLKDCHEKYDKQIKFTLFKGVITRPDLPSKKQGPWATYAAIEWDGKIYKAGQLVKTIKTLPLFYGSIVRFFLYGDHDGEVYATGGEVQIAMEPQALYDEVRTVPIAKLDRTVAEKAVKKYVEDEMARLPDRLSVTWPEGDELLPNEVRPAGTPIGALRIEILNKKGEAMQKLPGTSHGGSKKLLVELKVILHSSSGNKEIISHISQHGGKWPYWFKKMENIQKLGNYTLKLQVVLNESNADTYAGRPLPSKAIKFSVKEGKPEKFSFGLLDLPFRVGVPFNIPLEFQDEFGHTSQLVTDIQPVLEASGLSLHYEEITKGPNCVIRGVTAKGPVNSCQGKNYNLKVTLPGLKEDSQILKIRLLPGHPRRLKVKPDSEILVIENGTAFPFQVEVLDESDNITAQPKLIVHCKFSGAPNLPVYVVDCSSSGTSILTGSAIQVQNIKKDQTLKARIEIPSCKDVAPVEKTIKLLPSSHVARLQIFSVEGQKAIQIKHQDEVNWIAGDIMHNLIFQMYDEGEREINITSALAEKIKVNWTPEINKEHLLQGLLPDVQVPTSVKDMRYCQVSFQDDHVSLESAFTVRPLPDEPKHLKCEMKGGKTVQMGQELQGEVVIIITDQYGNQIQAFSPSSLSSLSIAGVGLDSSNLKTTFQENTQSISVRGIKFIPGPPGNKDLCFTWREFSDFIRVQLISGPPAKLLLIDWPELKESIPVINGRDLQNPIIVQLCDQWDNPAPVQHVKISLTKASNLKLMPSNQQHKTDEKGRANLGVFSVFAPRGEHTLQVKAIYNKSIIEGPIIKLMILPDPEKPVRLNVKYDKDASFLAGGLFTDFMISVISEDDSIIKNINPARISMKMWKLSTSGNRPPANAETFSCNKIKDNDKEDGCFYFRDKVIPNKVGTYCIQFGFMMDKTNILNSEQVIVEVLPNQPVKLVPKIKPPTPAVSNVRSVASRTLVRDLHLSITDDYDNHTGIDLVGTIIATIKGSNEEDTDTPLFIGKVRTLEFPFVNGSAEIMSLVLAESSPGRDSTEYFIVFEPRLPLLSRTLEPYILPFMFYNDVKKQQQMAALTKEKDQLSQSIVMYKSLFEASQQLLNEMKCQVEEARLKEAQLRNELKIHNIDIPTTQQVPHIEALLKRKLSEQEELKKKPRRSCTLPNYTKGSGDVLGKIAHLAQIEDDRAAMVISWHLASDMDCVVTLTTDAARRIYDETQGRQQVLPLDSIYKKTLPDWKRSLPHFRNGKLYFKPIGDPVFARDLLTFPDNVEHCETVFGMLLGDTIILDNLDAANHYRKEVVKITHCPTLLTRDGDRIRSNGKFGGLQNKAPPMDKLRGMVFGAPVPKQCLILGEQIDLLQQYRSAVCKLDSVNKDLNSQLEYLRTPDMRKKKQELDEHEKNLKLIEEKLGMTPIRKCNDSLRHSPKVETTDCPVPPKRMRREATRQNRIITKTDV
UniProt Q02446, whole entry, looked up: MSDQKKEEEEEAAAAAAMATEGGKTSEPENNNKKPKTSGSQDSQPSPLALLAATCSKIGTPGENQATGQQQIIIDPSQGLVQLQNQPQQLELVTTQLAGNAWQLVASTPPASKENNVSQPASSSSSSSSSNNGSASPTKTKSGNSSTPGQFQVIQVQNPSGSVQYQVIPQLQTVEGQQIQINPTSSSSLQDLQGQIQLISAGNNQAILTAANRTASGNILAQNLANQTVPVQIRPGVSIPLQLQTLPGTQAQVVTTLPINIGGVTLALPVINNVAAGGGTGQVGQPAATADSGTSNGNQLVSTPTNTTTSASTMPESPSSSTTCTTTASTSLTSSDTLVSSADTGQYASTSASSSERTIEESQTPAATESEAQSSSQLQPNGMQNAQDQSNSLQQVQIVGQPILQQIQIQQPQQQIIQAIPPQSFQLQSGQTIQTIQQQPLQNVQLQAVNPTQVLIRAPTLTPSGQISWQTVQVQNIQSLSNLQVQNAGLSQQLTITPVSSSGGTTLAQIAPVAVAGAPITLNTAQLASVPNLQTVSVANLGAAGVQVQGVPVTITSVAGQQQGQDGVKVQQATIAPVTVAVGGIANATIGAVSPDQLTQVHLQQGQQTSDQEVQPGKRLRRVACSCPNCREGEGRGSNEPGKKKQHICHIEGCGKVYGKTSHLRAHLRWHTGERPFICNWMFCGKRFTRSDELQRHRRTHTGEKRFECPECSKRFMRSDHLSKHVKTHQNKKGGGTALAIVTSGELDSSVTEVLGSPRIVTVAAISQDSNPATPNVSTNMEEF
UniProt Q02447: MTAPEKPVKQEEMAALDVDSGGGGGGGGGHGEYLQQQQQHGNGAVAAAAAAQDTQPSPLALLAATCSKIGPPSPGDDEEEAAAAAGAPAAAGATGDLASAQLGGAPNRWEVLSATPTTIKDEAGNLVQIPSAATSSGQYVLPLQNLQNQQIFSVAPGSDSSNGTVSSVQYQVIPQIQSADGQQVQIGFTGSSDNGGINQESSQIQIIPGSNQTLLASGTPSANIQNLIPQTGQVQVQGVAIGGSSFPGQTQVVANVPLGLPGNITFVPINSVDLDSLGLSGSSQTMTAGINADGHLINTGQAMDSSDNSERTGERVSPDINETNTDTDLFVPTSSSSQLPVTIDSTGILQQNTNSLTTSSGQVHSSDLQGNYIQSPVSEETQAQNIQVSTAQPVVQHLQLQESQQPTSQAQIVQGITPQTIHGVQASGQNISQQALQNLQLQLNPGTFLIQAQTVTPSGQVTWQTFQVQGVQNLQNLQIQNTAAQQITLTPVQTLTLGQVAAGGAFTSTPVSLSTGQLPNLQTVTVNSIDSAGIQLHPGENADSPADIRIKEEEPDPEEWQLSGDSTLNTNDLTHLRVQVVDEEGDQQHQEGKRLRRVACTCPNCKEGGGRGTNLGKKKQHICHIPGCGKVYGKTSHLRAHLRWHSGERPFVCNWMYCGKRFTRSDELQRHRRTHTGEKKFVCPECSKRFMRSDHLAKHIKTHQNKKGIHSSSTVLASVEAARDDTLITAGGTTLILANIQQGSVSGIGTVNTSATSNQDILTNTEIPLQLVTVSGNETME
UniProt Q9NZC9: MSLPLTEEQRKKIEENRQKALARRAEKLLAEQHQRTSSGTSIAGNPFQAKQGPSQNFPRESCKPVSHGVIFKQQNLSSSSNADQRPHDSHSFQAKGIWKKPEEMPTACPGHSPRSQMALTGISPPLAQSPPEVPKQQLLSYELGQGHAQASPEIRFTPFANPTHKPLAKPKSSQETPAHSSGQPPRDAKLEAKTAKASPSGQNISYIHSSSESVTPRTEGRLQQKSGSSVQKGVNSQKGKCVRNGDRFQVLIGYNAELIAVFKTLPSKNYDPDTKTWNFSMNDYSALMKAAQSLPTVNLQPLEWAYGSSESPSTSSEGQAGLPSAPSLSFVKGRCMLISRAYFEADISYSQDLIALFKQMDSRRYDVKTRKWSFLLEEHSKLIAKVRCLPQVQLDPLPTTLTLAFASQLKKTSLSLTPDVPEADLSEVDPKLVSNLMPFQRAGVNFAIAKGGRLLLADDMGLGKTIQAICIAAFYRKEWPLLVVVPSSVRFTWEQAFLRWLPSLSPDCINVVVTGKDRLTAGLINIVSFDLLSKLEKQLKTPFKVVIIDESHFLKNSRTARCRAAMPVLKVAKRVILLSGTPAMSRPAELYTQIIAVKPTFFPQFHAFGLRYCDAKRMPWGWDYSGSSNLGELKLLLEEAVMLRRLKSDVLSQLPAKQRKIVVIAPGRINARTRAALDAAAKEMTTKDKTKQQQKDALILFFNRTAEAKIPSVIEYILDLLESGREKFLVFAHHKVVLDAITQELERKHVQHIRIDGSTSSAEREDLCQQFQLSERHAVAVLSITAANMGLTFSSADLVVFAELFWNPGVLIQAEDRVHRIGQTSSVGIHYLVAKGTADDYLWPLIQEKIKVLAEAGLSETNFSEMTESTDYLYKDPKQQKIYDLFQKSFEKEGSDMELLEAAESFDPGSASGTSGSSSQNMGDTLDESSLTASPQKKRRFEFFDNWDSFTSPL

pictilisib = compound: CS(=O)(=O)N1CCN(Cc2cc3nc(-c4cccc5[nH]ncc45)nc(N4CCOCC4)c3s2)CC1 [pictilisib]
Summary of the method: as §1

crizotinib = compound: C[C@@H](Oc1cc(-c2cnn(C3CCNCC3)c2)cnc1N)c1c(Cl)ccc(F)c1Cl [crizotinib]
Summary of the method: as §1

[1] = compound: C[C@H](C1=CC=C(C=C1)C(=O)NC2=C3C=CNC3=NC=C2)N
Summary of the method: as §1

duvelisib = compound: C[C@H](Nc1ncnc2nc[nH]c12)c1cc2cccc(Cl)c2c(=O)n1-c1ccccc1 [duvelisib]
Summary of the method: as §1

gandotinib = compound: Cc1cc(Nc2cc(CN3CCOCC3)c3nc(C)c(Cc4ccc(Cl)cc4F)n3n2)n[nH]1 [gandotinib]
Summary of the method: as §1

tozasertib = compound: Cc1cc(Nc2cc(N3CCN(C)CC3)nc(Sc3ccc(NC(=O)C4CC4)cc3)n2)n[nH]1 [tozasertib]
Summary of the method: as §1

doramapimod = compound: Cc1ccc(-n2nc(C(C)(C)C)cc2NC(=O)Nc2ccc(OCCN3CCOCC3)c3ccccc23)cc1 [doramapimod]
Summary of the method: as §1

bafetinib = compound: Cc1ccc(NC(=O)c2ccc(CN3CC[C@H](N(C)C)C3)c(C(F)(F)F)c2)cc1Nc1nccc(-c2cncnc2)n1 [bafetinib]
Summary of the method: as §1

[2] = compound: Cc1cccc(CC(=O)N2CCc3c2ccc(-c2cn(C)c4ncnc(N)c24)c3F)n1
Summary of the method: as §1

nilotinib = compound: Cc1cn(-c2cc(NC(=O)c3ccc(C)c(Nc4nccc(-c5cccnc5)n4)c3)cc(C(F)(F)F)c2)cn1 [nilotinib]
Summary of the method: as §1

[3] = compound: Cc1nc(Nc2n[nH]c3c2CN(C(=O)N[C@H](CN(C)C)c2ccccc2)C3(C)C)c2sccc2n1
Summary of the method: as §1

dasatinib = compound: Cc1nc(Nc2ncc(C(=O)Nc3c(C)cccc3Cl)s2)cc(N2CCN(CCO)CC2)n1 [dasatinib]
Summary of the method: as §1

[4] = compound: Cc1ncc(-c2ccnc(Nc3ccc(S(C)(=O)=O)cc3)n2)n1C(C)C
Summary of the method: as §1

[5] = compound: Cn1cc(-c2ccc3c(c2)CCN3C(=O)Cc2cccc(C(F)(F)F)c2)c2c(N)ncnc21
Summary of the method: as §1

quisinostat = compound: Cn1cc(CNCC2CCN(c3ncc(C(=O)NO)cn3)CC2)c2ccccc21 [quisinostat]
Summary of the method: as §1

tipifarnib = compound: Cn1cncc1[C@@](N)(c1ccc(Cl)cc1)c1ccc2c(c1)c(-c1cccc(Cl)c1)cc(=O)n2C [tipifarnib]
Summary of the method: as §1

[6] = compound: NC(=O)Nc1cc(-c2cccc(F)c2)sc1C(=O)N[C@H]1CCCNC1
Summary of the method: as §1

[7] = compound: NC(=O)c1cnc(N[C@@H]2CCCC[C@@H]2N)nc1Nc1cccc(-n2nccn2)c1
Summary of the method: as §1

[8] = compound: NC1(c2ccc(-c3nc4ccn5c(=O)[nH]nc5c4cc3-c3ccccc3)cc2)CCC1
Summary of the method: as §1

Measured: log2 fold change

SMCR8 (UniProt Q8TEV9)
inactive: lapatinib 0.001 | pictilisib 0.001 | crizotinib 0.034 | [1] -0.086 | duvelisib 0.057 | gandotinib 0.067 | tozasertib 0.05 | doramapimod -0.012 | bafetinib -0.043 | [2] 0.057 | nilotinib 0.042 | [3] -0.057 | dasatinib -0.03 | [4] -0.04 | [5] -0.065 | quisinostat -0.036 | tipifarnib -0.017 | [6] -0.003 | [7] 0.049 | [8] 0.022

SMC5 (UniProt Q8IY18)
inactive: lapatinib -0.014 | pictilisib -0.013 | crizotinib -0.027 | [1] -0.043 | duvelisib 0.054 | gandotinib 0.023 | tozasertib -0.008 | doramapimod -0.017 | bafetinib -0.008 | [2] 0.071 | nilotinib 0.001 | [3] 0.009 | dasatinib -0.015 | [4] 0.004 | [5] 0.006 | quisinostat -0.027 | tipifarnib -0.041 | [6] 0.025 | [7] 0.006 | [8] 0.015

SNRPD2 (UniProt P62316)
inactive: lapatinib 0.017 | pictilisib -0.01 | crizotinib 0.016 | [1] -0.055 | duvelisib 0.018 | gandotinib 0.057 | tozasertib -0.014 | doramapimod -0.009 | bafetinib 0.078 | [2] 0.052 | nilotinib 0.014 | [3] 0.015 | dasatinib 0.024 | [4] 0.015 | [5] -0.02 | quisinostat 0.007 | tipifarnib 0.014 | [6] -0.027 | [7] 0 | [8] -0.002

SMC3 (UniProt Q9UQE7)
inactive: lapatinib 0.007 | pictilisib 0.006 | crizotinib 0.011 | [1] 0.037 | duvelisib -0.01 | gandotinib -0.013 | tozasertib 0.001 | doramapimod -0.007 | bafetinib -0.021 | [2] -0.012 | nilotinib 0 | [3] -0.01 | dasatinib 0.024 | [4] 0.013 | [5] 0.024 | quisinostat 0.023 | tipifarnib 0.002 | [6] 0 | [7] -0.003 | [8] 0.016

SOX5 (UniProt P35711)
inactive: lapatinib 0.137 | pictilisib -0.019 | crizotinib 0.006 | [1] 0.007 | duvelisib -0.073 | gandotinib 0.06 | tozasertib -0.017 | doramapimod 0.026 | bafetinib -0.235 | [2] 0.007 | dasatinib -0.035 | [5] -0.095 | quisinostat 0.027 | [6] -0.03 | [7] -0.186 | [8] -0.004

SNRNP200 (UniProt O75643)
inactive: lapatinib -0.011 | pictilisib -0.003 | crizotinib -0.014 | [1] -0.041 | duvelisib 0.028 | gandotinib -0.009 | tozasertib -0.003 | doramapimod -0.005 | bafetinib -0.043 | [2] 0.059 | nilotinib -0.013 | [3] 0.001 | dasatinib -0.014 | [4] -0.004 | [5] 0.011 | quisinostat -0.003 | tipifarnib 0 | [6] 0.019 | [7] 0.015 | [8] -0.026

SPA17 (UniProt Q15506)
inactive: lapatinib 0.058 | pictilisib -0.012 | crizotinib 0.019 | duvelisib 0.009 | gandotinib 0.303 | tozasertib -0.022 | doramapimod 0.054 | bafetinib -0.076 | [2] 0.25 | dasatinib -0.065 | [5] -0.041 | quisinostat 0.003 | [6] -0.015 | [7] 0.042
active: [1] -0.498

SNX9 (UniProt Q9Y5X1)
inactive: lapatinib -0.001 | pictilisib -0.014 | crizotinib 0.003 | [1] -0.006 | duvelisib -0.017 | gandotinib -0.033 | tozasertib 0.002 | doramapimod -0.003 | bafetinib -0.031 | [2] -0.005 | nilotinib -0.006 | [3] 0.003 | dasatinib -0.001 | [4] 0.012 | [5] 0.002 | quisinostat 0.007 | tipifarnib 0.023 | [6] -0.007 | [7] -0.028 | [8] 0.007

SNRPE (UniProt P62304)
inactive: lapatinib -0.027 | pictilisib -0.033 | crizotinib -0.036 | [1] -0.077 | duvelisib 0.039 | gandotinib 0.07 | tozasertib -0.006 | doramapimod -0.006 | bafetinib 0.014 | [2] 0.1 | nilotinib 0.021 | [3] -0.016 | dasatinib 0.037 | [4] -0.017 | [5] -0.003 | quisinostat -0.073 | tipifarnib 0.001 | [6] 0.014 | [7] 0.006 | [8] -0.041

SNF8 (UniProt Q96H20)
inactive: lapatinib -0.007 | pictilisib -0.03 | crizotinib -0.009 | [1] 0.016 | duvelisib 0.025 | gandotinib -0.03 | tozasertib 0.012 | doramapimod -0.038 | bafetinib -0.04 | [2] 0.007 | nilotinib -0.023 | [3] 0.017 | dasatinib -0.03 | [4] 0.037 | [5] 0.053 | quisinostat 0.021 | tipifarnib 0.014 | [6] -0.028 | [7] 0 | [8] 0.049

SNRPA1 (UniProt P09661)
inactive: lapatinib 0.008 | pictilisib -0.007 | crizotinib 0.088 | [1] -0.045 | duvelisib 0.002 | gandotinib 0.049 | tozasertib 0.004 | doramapimod -0.015 | bafetinib 0.015 | [2] 0.002 | nilotinib 0.022 | [3] -0.028 | dasatinib 0.018 | [4] -0.024 | [5] -0.002 | quisinostat 0.107 | tipifarnib 0.019 | [6] -0.011 | [7] 0 | [8] -0.009

Quoted at random: two entries already listed.
SNF8 (UniProt Q96H20)
inactive: lapatinib -0.007 | pictilisib -0.03 | crizotinib -0.009 | [1] 0.016 | duvelisib 0.025 | gandotinib -0.03 | tozasertib 0.012 | doramapimod -0.038 | bafetinib -0.04 | [2] 0.007 | nilotinib -0.023 | [3] 0.017 | dasatinib -0.03 | [4] 0.037 | [5] 0.053 | quisinostat 0.021 | tipifarnib 0.014 | [6] -0.028 | [7] 0 | [8] 0.049

SNRPE (UniProt P62304)
inactive: lapatinib -0.027 | pictilisib -0.033 | crizotinib -0.036 | [1] -0.077 | duvelisib 0.039 | gandotinib 0.07 | tozasertib -0.006 | doramapimod -0.006 | bafetinib 0.014 | [2] 0.1 | nilotinib 0.021 | [3] -0.016 | dasatinib 0.037 | [4] -0.017 | [5] -0.003 | quisinostat -0.073 | tipifarnib 0.001 | [6] 0.014 | [7] 0.006 | [8] -0.041

The results go on.

SMCHD1 (UniProt A6NHR9)
inactive: lapatinib -0.034 | pictilisib -0.01 | crizotinib -0.041 | [1] -0.077 | duvelisib 0.017 | gandotinib 0.031 | tozasertib 0.034 | doramapimod 0.036 | bafetinib 0.003 | [2] 0.028 | nilotinib 0.011 | [3] -0.04 | dasatinib -0.005 | [4] -0.029 | [5] 0.058 | quisinostat -0.062 | tipifarnib 0.018 | [6] 0.072 | [7] 0.024 | [8] -0.004

SP4 (UniProt Q02446)
inactive: lapatinib -0.06 | pictilisib -0.098 | crizotinib -0.016 | [1] -0.298 | duvelisib 0.058 | gandotinib 0.165 | tozasertib 0.152 | doramapimod -0.007 | bafetinib -0.1 | [2] 0.115 | dasatinib -0.023 | [5] -0.063 | quisinostat 0.018 | [6] 0.052 | [7] -0.034 | [8] 0.166

SORBS3 (UniProt O60504)
inactive: lapatinib 0.072 | pictilisib 0.007 | crizotinib -0.002 | [1] 0.006 | duvelisib -0.127 | gandotinib 0.024 | tozasertib -0.012 | doramapimod -0.019 | bafetinib -0.032 | [2] 0.025 | dasatinib 0.005 | [5] -0.019 | quisinostat -0.088 | [6] 0.022 | [7] 0.036 | [8] -0.019

SP3 (UniProt Q02447)
inactive: lapatinib -0.008 | pictilisib -0.001 | crizotinib -0.002 | [1] 0.12 | duvelisib 0.037 | gandotinib 0.038 | tozasertib 0.023 | doramapimod 0.026 | bafetinib -0.061 | [2] -0.06 | nilotinib -0.005 | [3] 0.19 | dasatinib -0.188 | [4] 0.227 | [5] -0.104 | quisinostat 0.081 | tipifarnib -0.072 | [6] -0.069 | [7] 0.031 | [8] -0.03

SMARCAL1 (UniProt Q9NZC9)
inactive: lapatinib -0.159 | pictilisib -0.271 | crizotinib -0.021 | [1] 0.07 | duvelisib 0.08 | gandotinib -0.175 | tozasertib 0.111 | doramapimod 0.048 | bafetinib -0.372 | [2] -0.224 | nilotinib -0.019 | [3] -0.013 | dasatinib -0.006 | [4] 0.007 | [5] -0.069 | quisinostat 0.03 | tipifarnib -0.012 | [6] 0.048 | [7] 0.026 | [8] -0.115
